# Laboratory results reported in PubChem BioAssay AID493014 (National Center for Advancing Translational Sciences (NCATS), 2011).
# About 170 (0.05%) of roughly 340,000 compounds were called active. This list was built around the results that the source calls inconclusive (neither active nor inactive); the mix of calls is not that of the screen. The call rests on the fitted dose curve; in most records, active means well fitted inhibition curve with a large enough effect in the signal ratio, with a control signal flat (not every such curve was filed as active); inconclusive means small, poorly fitted or top-dose-only effect, or effect the other way, or a change in a side signal; inactive means flat fitted curve, though single readings scatter; the % refers to the signal ratio. A potency beside an inconclusive call is a rough fit, not a confirmed value.
# Experiment: qHTS Assay to Find Inhibitors of Chronic Active B-Cell Receptor Signaling;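 on activity change, negative = inhibition: plate controls were basal doxycycline-induced cells for no effect and cells given 10 µM MG132 for full effect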
# Details: ABC-DLBCL IkBa-CBG/CBR reporter, luminescence ratio (green luciferase fused to IkBa over red control in TMD8 lymphoma cells), 4 h; activity change, negative = inhibition: at 46.1 µM (top of the series)
# How it was run: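 Cell line TMD8 (human ABC DLBCL), stably expressing tet-inducible CBG68-IkBa fusion and CBR; IMDM/0.5% FBS; cpd up to 46 uM; dox induction, 4 h, 37C/5% CO2; dual luminescence; green/red ratio; MG132 control.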
# Potency means the concentration at half of the fitted maximal effect.
Compound,"activity change, negative = inhibition",Potency
CN1CCN(C(=O)c2cc3nc(-c4ccc(F)cc4)cc(C(F)(F)F)n3n2)CC1,inactive: 0.854%,
CC(=O)Nc1ccc(C(C#N)c2ccccc2)cc1 (stereo not given),inactive: 8.93%,
CCn1c(=O)c(NC(=O)c2ccccc2)c2n(c1=S)CCCCC2,,"inconclusive: 3.66 µM [falling, partial curve, poor fit]"
CCOc1ccc(NC2CCN(C(C)=O)CC2)cc1,,"inconclusive: 18.4 µM [rising, partial curve, poor fit]"
Cc1cccc(Nc2cnn(C34CC5CC(CC(CC(=O)O)(C5)C3)C4)c(=O)c2Cl)c1,inconclusive: 5.8%,
COc1ccc(C(=O)CSc2nccn2C)c(OC)c1,,"inconclusive: 35.5 µM [rising, single point]"
CC(=O)Nc1ccccc1C(=O)N1CC2(C)CC1CC(C)(C)C2 (stereo not given),inconclusive: -0.44%,
C[C@@H]1CN([C@@H](C)CO)C(=O)c2cccc(NC(=O)Nc3ccccc3)c2O[C@H]1CN(C)C(=O)Nc1cccc2ccccc12,inconclusive: -3.52%,
COc1cccc(C(=O)NC(=S)Nc2ccc3oc(=O)ccc3c2)c1,,"inconclusive: 20.6 µM [falling, single point]"
Cc1ccc(Nc2nnc(SCC(=O)NC(Cc3c[nH]c4ccccc34)C(=O)O)s2)cc1 (stereo not given),inconclusive: 6.11%,
CCOC(=O)Cc1csc(NC(=O)COc2ccc(C)c(C)c2)n1,,"inconclusive: 35.5 µM [falling, single point]"
CCCN1CCC(N2CCN(c3cccc(C(F)(F)F)c3)CC2)CC1,inconclusive: -15.5%,
Cc1[nH]n(-c2ccccc2)c(=O)c1/C=N/N1C(=O)c2ccc3c4c(ccc(c24)C1=O)CC3,inconclusive: 0.473%,
O=C(/C=C/c1nc2ccccc2s1)N1CCCCCC1,,"inconclusive: 25.1 µM [falling, single point]"
CCC(C)NC(=O)CCNS(=O)(=O)c1ccc(Br)cc1 (stereo not given),inconclusive: 13.5%,
c1ccc(CSc2nnc3c(n2)OC(c2ccco2)Nc2ccccc2-3)cc1 (stereo not given),,"inconclusive: 29.1 µM [falling, single point]"
O=C(O)CSc1nnc(-c2cc3ccccc3o2)n1-c1ccccc1,inconclusive: 10.9%,
CCOC(=O)C1(Cc2ccccc2)CCN(Cc2cccc3nccnc23)CC1,,"inconclusive: 4.47 µM [falling, full curve, poor fit]"
O=C(NCc1cc([N+](=O)[O-])ccc1O)c1cc(-c2ccncc2)nc2ccccc12,,"inconclusive: 3.98 µM [falling, partial curve, poor fit]"
Cc1ccc(N(Cc2cc3ccccc3[nH]c2=O)C(=O)c2cccs2)cc1,inconclusive: 1.92%,

Compound,"activity change, negative = inhibition",Potency
O=C(Nc1ccc(N2CCOCC2)cc1)c1ccc(Cl)cc1N1CCCC1=O,inconclusive: -29.1%,
COc1ccc2oc(=O)c(C(=O)NCc3ccccc3)cc2c1,inconclusive: 7.57%,
O=C(c1ccccc1)c1coc2ccc(O)c(Cl)c12,,"inconclusive: 17.8 µM [falling, single point]"
Cc1ccccc1Nc1nnc(SCc2cc([N+](=O)[O-])cc3c2OCOC3)s1,,"inconclusive: 3.26 µM [falling, partial curve, poor fit]"
CC(NC(=O)NNC(N)=S)(C(F)(F)F)C(F)(F)F,,"inconclusive: 35.5 µM [cytotoxic, single point]"
CN(CCC#N)S(=O)(=O)c1ccc2[nH]cc(C(=O)NCCc3ccccc3)c(=O)c2c1,inconclusive: -6.67%,
O=C1c2ccccc2C(=O)N1Cc1cnc(N2CCN(c3ccccc3)CC2)s1,inactive: 3.52%,
Cc1ccc(/C=N/N=C/c2ccc(C)s2)s1,,"inconclusive: 23.1 µM [falling, single point]"
Cn1nnnc1NC(=O)c1ccccc1Cl,inactive: -8.08%,
CCOC(=O)C1=C(O)/C(=C/c2cc(C)n(-c3ccccc3)c2C)N=C1C,inconclusive: 2.71%,
O=S(=O)(Nc1cccc2nsnc12)c1ccccc1,,"inconclusive: 1.84 µM [falling, partial curve, poor fit]"
O=S(=O)(CC(CN1CCCCC1)N1CCCCC1)c1ccccc1 (stereo not given),inconclusive: -17.7%,
Cc1oc(-c2ccccc2Cl)nc1CSc1nc2c(c(=O)[nH]1)CCCC2,inactive: -4.28%,
Cc1ccc2nc(-c3ccc(O)c(O)c3)cn2c1,,"inconclusive: 22.4 µM [falling, single point]"
COc1cccc(C(=O)NCCSc2ccc(C)cc2)c1,inconclusive: -0.861%,
COc1ccc(C(=O)Nc2cccc3nc(C)ccc23)cc1OC,,"inconclusive: 11.2 µM [falling, partial curve, poor fit]"
CC1CCCN(S(=O)(=O)c2ccc(N(C(=O)c3cnccn3)C(C(=O)NC3CCCCC3)c3cccs3)cc2)C1 (stereo not given),inconclusive: -29.6%,
COc1ccc(NC(=O)N2CCCC(c3nc(-c4ccc(OC)cc4)no3)C2)cc1 (stereo not given),,"inconclusive: 2.82 µM [falling, full curve, poor fit]"
COc1ccccc1NC(=O)CSc1nnc(CNC(=O)c2cccs2)o1,,"inconclusive: 31.6 µM [falling, single point]"
Cc1cc(N2CCN(c3ccc(F)cc3)CC2)nc(-c2ccccc2)n1,,"inconclusive: 32.6 µM [rising, partial curve, poor fit]"

# A draw from above in order of length of the SMILES, descending.
Compound,"activity change, negative = inhibition",Potency
COc1ccc(NC(=O)N2CCCC(c3nc(-c4ccc(OC)cc4)no3)C2)cc1 (stereo not given),,"inconclusive: 2.82 µM [falling, full curve, poor fit]"
CCCN1CCC(N2CCN(c3cccc(C(F)(F)F)c3)CC2)CC1,inconclusive: -15.5%,
CC(=O)Nc1ccc(C(C#N)c2ccccc2)cc1 (stereo not given),inactive: 8.93%,
